No constants are given. Whether binding was seen depends on the method and setting. Binding seen in cells or lysates may run through a third protein. These calls come from enrichment with a bait or labelling near it, and not all partners need be listed. Sequences can lack the tags named with a protein.
T1: His6-Gis1 (yeast (S. cerevisiae)) (UniProt Q03833)
T1 sequence: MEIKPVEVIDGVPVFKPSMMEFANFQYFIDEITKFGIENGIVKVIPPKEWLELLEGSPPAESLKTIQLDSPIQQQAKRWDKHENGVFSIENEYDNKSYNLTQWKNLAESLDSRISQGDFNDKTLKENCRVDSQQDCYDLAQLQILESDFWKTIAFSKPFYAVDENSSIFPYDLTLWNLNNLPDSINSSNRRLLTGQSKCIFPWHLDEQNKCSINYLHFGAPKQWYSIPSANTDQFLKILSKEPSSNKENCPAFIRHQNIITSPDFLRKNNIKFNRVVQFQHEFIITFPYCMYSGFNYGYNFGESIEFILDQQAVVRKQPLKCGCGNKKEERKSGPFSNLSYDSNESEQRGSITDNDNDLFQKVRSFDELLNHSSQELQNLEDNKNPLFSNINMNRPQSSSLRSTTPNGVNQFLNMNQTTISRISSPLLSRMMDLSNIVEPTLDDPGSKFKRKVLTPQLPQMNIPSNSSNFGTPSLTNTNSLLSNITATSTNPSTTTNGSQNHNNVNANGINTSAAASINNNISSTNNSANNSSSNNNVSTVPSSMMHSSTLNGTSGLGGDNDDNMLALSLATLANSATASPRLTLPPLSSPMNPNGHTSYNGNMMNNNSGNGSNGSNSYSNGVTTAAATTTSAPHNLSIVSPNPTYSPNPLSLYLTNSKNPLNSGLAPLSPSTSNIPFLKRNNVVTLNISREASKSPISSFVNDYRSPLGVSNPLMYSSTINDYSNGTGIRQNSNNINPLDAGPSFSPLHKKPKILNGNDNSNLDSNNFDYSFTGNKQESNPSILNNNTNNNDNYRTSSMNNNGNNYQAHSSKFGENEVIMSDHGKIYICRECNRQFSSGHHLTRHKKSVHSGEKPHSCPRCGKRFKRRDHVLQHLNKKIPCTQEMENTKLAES

B1: LYS20 (protein, UniProt P48570 1-428)
chain: MTAAKPNPYAAKPGDYLSNVNNFQLIDSTLREGEQFANAFFDTEKKIEIARALDDFGVDYIELTSPVASEQSRKDCEAICKLGLKAKILTHIRCHMDDAKVAVETGVDGVDVVIGTSKFLRQYSHGKDMNYIAKSAVEVIEFVKSKGIEIRFSSEDSFRSDLVDLLNIYKTVDKIGVNRVGIADTVGCANPRQVYELIRTLKSVVSCDIECHFHNDTGCAIANAYTALEGGARLIDVSVLGIGERNGITPLGGLMARMIVAAPDYVKSKYKLHKIRDIENLVADAVEVNIPFNNPITGFCAFTHKAGIHAKAILANPSTYEILDPHDFGMKRYIHFANRLTGWNAIKARVDQLNLNLTDDQIKEVTAKIKKLGDVRSLNIDDVDSIIKNFHAEVSTPQVLSAKKNKKNDSDVPELATIPAAKRTKPSA
B2: INA22 (protein, UniProt P40576 27-216)
chain: VASANAGIKRKSRFDKTMIKPLLLVMIFGSILNAVIAEKRNIIDMERKYKLKLDKLKELIRRVHDNNGKVDFDADDELKLVNLRLGIVGKNATGMKEDETDIVVPKEESLEEIWQSIIDEAKKEVIEKTPDAGVKNKEGIVTDLNVLKDLEKSKKEDEKVYLSGDVHMMMNQPGDLNEIAKEHDKIPKFL
B3: GVP36 (protein, UniProt P40531 1-326)
chain: MSFNAFASSLSKKLQEISTSVSEKTQELPSLAQSTQRMVQERLGQVTDISQLPREYTELEDKVDTIKLIYNHFLGVTAIYENGSYDYPKYINESVNEFSRSVASKLTELTHATSASEAQNILVAPGPIKEPKTLNYALSKVALNSSECLNKMFPTEEQPLASALLQFSDVQAKIAQARIQQDTLIQTKFNKNLRERLSFEIGKADKCRKDVHSMRLRYDVARTNLANNKKPEKEASLRVQMETLEDQFAQVTEDATVCLQEVISHANFSEDLKELAKAQAEYFETSAGLMKEFLSNSFAEEPEAKPEVAEEEKPQTAISMNDEDDA
B4: MLF3 (protein, UniProt P32047 1-452)
chain: MCVYKSNSNNSNPSFIFERTVQEASSNDLFLQPPVSASNTSHSSRSNSFYNLQTISPIPISGSEVRTPSLRKNSNNVSSPLDNVIPTSRSASNSTTSSLAHQEYILNPICNMQNHHHRRRTLENSVAPALDASCSIVNDENTDLSDVDMVYSRRPSSAVSLNMALLARTNSATLPSSESSPASPDLKLSRSHSHSAATRPTLNNINNTGMTTTTSNGEPNSRILRFYSYVDMLNDEKLAQANNTPTSRPPMKSQAYSCPFILKRSPPQAYSSSSATTTFSNPFIKTTELPATSPYVSPQQSARQYSNNANNNAKSPKNRSSSILFQRQSILSNVDPVANMHKNPKFQIESSDSEEEDLTMDMLDPSFPLSSSLRSSANLASNPELATQTPLSTSSSYTAIGKPMPLSTDPSYVSSSNTLSSEHELRVEKVSEVLKKKVSNGGFSTEFNSCDT
B5: HFD1 (protein, UniProt Q04458 1-532)
chain: MSNDGSKILNYTPVSKIDEIVEISRNFFFEKQLKLSHENNPRKKDLEFRQLQLKKLYYAVKDHEEELIDAMYKDFHRNKIESVLNETTKLMNDILHLIEILPKLIKPRRVSDSSPPFMFGKTIVEKISRGSVLIIAPFNFPLLLAFAPLAAALAAGNTIVLKPSELTPHTAVVMENLLTTAGFPDGLIQVVQGAIDETTRLLDCGKFDLIFYTGSPRVGSIVAEKAAKSLTPCVLELGGKSPTFITENFKASNIKIALKRIFFGAFGNSGQICVSPDYLLVHKSIYPKVIKECESVLNEFYPSFDEQTDFTRMIHEPAYKKAVASINSTNGSKIVPSKISINSDTEDLCLVPPTIVYNIGWDDPLMKQENFAPVLPIIEYEDLDETINKIIEEHDTPLVQYIFSDSQTEINRILTRLRSGDCVVGDTVIHVGITDAPFGGIGTSGYGNYGGYYGFNTFSHERTIFKQPYWNDFTLFMRYPPNSAQKEKLVRFAMERKPWFDRNGNNKWGLRQYFSLSAAVILISTIYAHCSS
B6: MPE1 (protein, UniProt P35728 1-441)
chain: MSSTIFYRFKSQRNTSRILFDGTGLTVFDLKREIIQENKLGDGTDFQLKIYNPDTEEEYDDDAFVIPRSTSVIVKRSPAIKSFSVHSRLKGNVGAAALGNATRYVTGRPRVLQKRQHTATTTANVSGTTEEERIASMFATQENQWEQTQEEMSAATPVFFKSQTNKNSAQENEGPPPPGYMCYRCGGRDHWIKNCPTNSDPNFEGKRIRRTTGIPKKFLKSIEIDPETMTPEEMAQRKIMITDEGKFVVQVEDKQSWEDYQRKRENRQIDGDETIWRKGHFKDLPDDLKCPLTGGLLRQPVKTSKCCNIDFSKEALENALVESDFVCPNCETRDILLDSLVPDQDKEKEVETFLKKQEELHGSSKDGNQPETKKMKLMDPTGTAGLNNNTSLPTSVNNGGTPVPPVPLPFGIPPFPMFPMPFMPPTATITNPHQADASPKK
B7: CKS1 (protein, UniProt P20486 1-150)
chain: MYHHYHAFQGRKLTDQERARVLEFQDSIHYSPRYSDDNYEYRHVMLPKAMLKVIPSDYFNSEVGTLRILTEDEWRGLGITQSLGWEHYECHAPEPHILLFKRPLNYEAELRAATAAAQQQQQQQQQQQQQQQQHQTQSISNDMQVPPQIS
B8: IRC5 (protein, UniProt P43610 1-853)
chain: MSRCSNAALMTVVEDAVGARVAARTRNMSNGVNYREKEVNDLTADISDSDSDLDSEDNKHGKGDNDTAPIWLQDDVHSDEDIQLDSEDDSDTEAVQAQVVDKLAKDTKSEQKSLDDELSEMDTKTVSLKLKKLNEFVRQSQVYSSIIADTLLHRSNEVANANTKDNSNSDDEEHSSKKRKTKKKSITDFFKKQKKNEDTTTQNGAPDDAAIKQPRLLKNCILKPYQLEGLNWLITLYENGLNGILADEMGLGKTVQSIALLAFIYEMDTKGPFLVTAPLSTLDNWMNEFAKFAPDLPVLKYYGTNGYKERSAKLKNFFKQHGGTGIVITSYEIILRDTDLIMSQNWKFLIVDEGHRLKNINCRLIKELKKINTSNRLLLTGTPLQNNLAELWSLLNFIMPDIFADFEIFNKWFDFDSLNLGSGSNSEALNKLINDELQKNLISNLHTILKPFLLRRLKKVVLANILPPKREYIINCPMTSAQEKFYKAGLNGKLKKTMFKELIKDFFTLNDEYIGHVSNRSIRDFINYKLSGNETSNTDNKINPTLLQMDKLYKKNLQMEISNKKLQNMMMQLRQIIDSTFLFYFPYLHPEDLTLETLLKTSGKLQILQKLIPPLISEGHKVLIYSQFVNMLDLIEDWCDLNSFATFRIDGSVNNETRKDQLEKFNSSKDKHNIFLLSTRAAGLGINLVGADTVVLFDSDWNPQVDLQAMDRCHRIGQESPVIVYRLCCDNTIEHVILTRAANKRNLERMVIQMGKFNNLKKLALNEGSFLKANKAGVNVTNKDLVQELSMLLMSDESNIGFENGGQKENKATEGQLTDKEVEELTNRSLEAYKANRVVDLPHVKLFETTSGL
B9: HEM15 (protein, UniProt P16622 32-393)
chain: NAQKRSPTGIVLMNMGGPSKVEETYDFLYQLFADNDLIPISAKYQKTIAKYIAKFRTPKIEKQYREIGGGSPIRKWSEYQATEVCKILDKTCPETAPHKPYVAFRYAKPLTAETYKQMLKDGVKKAVAFSQYPHFSYSTTGSSINELWRQIKALDSERSISWSVIDRWPTNEGLIKAFSENITKKLQEFPQPVRDKVVLLFSAHSLPMDVVNTGDAYPAEVAATVYNIMQKLKFKNPYRLVWQSQVGPKPWLGAQTAEIAEFLGPKVDGLMFIPIAFTSDHIETLHEIDLGVIGESEYKDKFKRCESLNGNQTFIEGMADLVKSHLQSNQLYSNQLPLDFALGKSNDPVKDLSLVFGNHEST
B10: IRC22 (protein, UniProt P40006 25-225)
chain: NNSDNVEHEQEVAEAVAPPSINIEVKYDVVGKESENHDSFLEFYAEDTATLAYNVTNWEDTNITIFGVNGTIVTYPHGYPVADITGASIGPYEMEVNGTSKFGQDVTLNLPEGQYFLIPFLLASRFDEIVRIAAPPTLFEIVSPPISFFNPQFLSVQVIFLAIIGGVSYYYMKSKTNQRPSKKSATVKKVDESWLPETYKK

Target: T1, His6-Gis1 (yeast (S. cerevisiae))
Assay: affinity purification with mass spectrometry; His6-Gis1 pre-bound to a Ni Sepharose 6 Fast Flow column; crude yeast extract (Δgis1 cells grown in air or under hypoxia, Δgis1Δhem1 cells at intermediate or high ALA) loaded, 4 °C, 2 h; eluted complexes separated by SDS-PAGE, bands excised, MS; only the target purified

binding, binds:
B1, B2, B3, B4, B5, B6, B7, B8, B9, B10

From PMC7140707
